Test results from US7947647B2, “Synthetic mimics of mammalian cell surface receptors: method and compositions” (The Penn State Research Foundation, priority 2004, dated 2011).

What was measured:
Format in all cases: cell-based, human
[1] = test system: Jurkat lymphocytes; assay: Subcellular localization of fluorescent receptors (epifluorescence microscopy, dithionite quenching); conditions: 10 μM, 1 h
[2] = test system: Jurkat lymphocytes; assay: Quantification of the number of receptors on the cell surface
[3] = test system: lipid raft fractions of plasma membranes of Jurkat lymphocytes; assay: Isolation of lipid rafts by sucrose density gradient ultracentrifugation; conditions: receptors 1 μM with anti-DNP-AF488, Triton-X, 4° C.

Compound | subcellular localization [1] | other results
CC(C)CCCC(C)[C@H]1CCC2C3CC=C4CC(NCCCNC(=O)CCCCCNc5ccc([N+](=O)[O-])c6nonc56)CC[C@]4(C)C3CC[C@@]21C (stereo partly shown) [receptor 8] | primarily intracellular | 
CC(C)CCC[C@@H](C)[C@H]1CC[C@H]2[C@@H]3CC=C4C[C@@H](NC(=O)CCNC(=O)CCCCCNc5ccc([N+](=O)[O-])c6nonc56)CC[C@]4(C)[C@H]3CC[C@]12C [receptor 9, N-[3-[(3β)-cholest-5-en-3-ylamino]-3-oxopropyl]-6-(7-nitrobenzofurazan-4-ylamino)hexanamide] | essentially completely associated with internal membranes | 
CC(C)CCC[C@@H](C)[C@H]1CC[C@H]2[C@@H]3CC=C4C[C@@H](NCCCCC(=O)NCCC(=O)NCCC(=O)NCCCCC(C(=O)O)N(CC(=O)O)CC(=O)O)CC[C@]4(C)[C@H]3CC[C@]12C (stereo partly drawn) [receptor 1, 4-Carboxy-3-(carboxymethyl)-22-[(3β)-cholest-5-en-3-ylamino]-10,14,18-trioxo-3,9,13,17-tetraazadocosan-1-oic acid] |  | average number of receptors per cell ([2]; 10 μM receptor 1 h at 37° C.): ~45,000,000; molecules of equivalent fluorescein (MEFL) per cell ([2]; 10 μM receptor, calibration curve): 39,300,000
CC(C)CCC[C@@H](C)[C@H]1CC[C@H]2[C@@H]3CC=C4C[C@@H](NCCCNC(=O)CCNC(=O)CCNC(=O)CCCCCNc5ccc([N+](=O)[O-])c6nonc56)CC[C@]4(C)[C@H]3CC[C@]12C [receptor 6, N-(3-{[3-({3-[(3β)-cholest-5-en-3-ylamino]propyl}amino)-3-oxopropyl]amino}-3-oxopropyl)-6-(7-nitrobenzofurazan-4-ylamino)hexanamide] | predominantly on the cell surface | 
transferrin: green fluorescent transferrin protein, negative control for lipid rafts [reference compound] |  | association with low-density lipid raft membrane fraction (#5) [3]: not observed
CC(C)CCC[C@@H](C)[C@H]1CC[C@H]2[C@@H]3CC=C4C[C@@H](NCCCNC(=O)CCNC(=O)CCCCCNc5ccc([N+](=O)[O-])c6nonc56)CC[C@]4(C)[C@H]3CC[C@]12C [receptor 7, N-[3-({3-[(3β)-cholest-5-en-3-ylamino]propyl}amino)-3-oxopropyl]-6-(7-nitrobenzofurazan-4-ylamino)hexanamide] | lower cell surface localization | 
